Measurements: the supplement of paper PMC6411743
± gives the standard deviation of the averaged measurements. This is a selection; strong and weak results do not stand in their true shares.

Protein sequences, listed by entry. Tags and fused reporters are not part of them. Lines headed by an entry give the natural chain unless they say otherwise; changes in a name come on top.
UniProt Q92575: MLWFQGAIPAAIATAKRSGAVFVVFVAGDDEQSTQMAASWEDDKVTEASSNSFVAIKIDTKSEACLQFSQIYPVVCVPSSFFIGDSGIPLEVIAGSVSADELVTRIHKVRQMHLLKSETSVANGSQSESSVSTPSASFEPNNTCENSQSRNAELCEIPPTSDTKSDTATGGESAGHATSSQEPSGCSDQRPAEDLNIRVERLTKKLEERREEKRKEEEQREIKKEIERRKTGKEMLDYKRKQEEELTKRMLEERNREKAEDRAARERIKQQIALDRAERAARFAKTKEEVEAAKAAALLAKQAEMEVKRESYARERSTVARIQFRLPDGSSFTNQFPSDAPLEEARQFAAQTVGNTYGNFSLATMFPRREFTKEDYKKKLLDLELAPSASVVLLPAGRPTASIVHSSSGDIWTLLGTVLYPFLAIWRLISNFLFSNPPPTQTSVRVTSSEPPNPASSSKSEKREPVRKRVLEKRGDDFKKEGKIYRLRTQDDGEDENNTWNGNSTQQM
UniProt Q8WU79: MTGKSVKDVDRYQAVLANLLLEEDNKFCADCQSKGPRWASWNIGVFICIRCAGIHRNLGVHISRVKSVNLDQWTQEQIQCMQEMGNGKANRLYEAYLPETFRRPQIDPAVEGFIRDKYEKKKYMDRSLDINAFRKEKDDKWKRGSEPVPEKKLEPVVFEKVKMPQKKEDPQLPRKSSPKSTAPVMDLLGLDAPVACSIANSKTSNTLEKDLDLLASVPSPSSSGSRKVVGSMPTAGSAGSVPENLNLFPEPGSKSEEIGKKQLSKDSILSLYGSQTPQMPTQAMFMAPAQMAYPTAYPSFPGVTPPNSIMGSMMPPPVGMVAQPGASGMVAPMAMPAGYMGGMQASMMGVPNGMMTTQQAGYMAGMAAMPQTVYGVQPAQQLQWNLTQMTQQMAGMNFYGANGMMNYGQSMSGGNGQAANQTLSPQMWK
UniProt Q8WUQ7: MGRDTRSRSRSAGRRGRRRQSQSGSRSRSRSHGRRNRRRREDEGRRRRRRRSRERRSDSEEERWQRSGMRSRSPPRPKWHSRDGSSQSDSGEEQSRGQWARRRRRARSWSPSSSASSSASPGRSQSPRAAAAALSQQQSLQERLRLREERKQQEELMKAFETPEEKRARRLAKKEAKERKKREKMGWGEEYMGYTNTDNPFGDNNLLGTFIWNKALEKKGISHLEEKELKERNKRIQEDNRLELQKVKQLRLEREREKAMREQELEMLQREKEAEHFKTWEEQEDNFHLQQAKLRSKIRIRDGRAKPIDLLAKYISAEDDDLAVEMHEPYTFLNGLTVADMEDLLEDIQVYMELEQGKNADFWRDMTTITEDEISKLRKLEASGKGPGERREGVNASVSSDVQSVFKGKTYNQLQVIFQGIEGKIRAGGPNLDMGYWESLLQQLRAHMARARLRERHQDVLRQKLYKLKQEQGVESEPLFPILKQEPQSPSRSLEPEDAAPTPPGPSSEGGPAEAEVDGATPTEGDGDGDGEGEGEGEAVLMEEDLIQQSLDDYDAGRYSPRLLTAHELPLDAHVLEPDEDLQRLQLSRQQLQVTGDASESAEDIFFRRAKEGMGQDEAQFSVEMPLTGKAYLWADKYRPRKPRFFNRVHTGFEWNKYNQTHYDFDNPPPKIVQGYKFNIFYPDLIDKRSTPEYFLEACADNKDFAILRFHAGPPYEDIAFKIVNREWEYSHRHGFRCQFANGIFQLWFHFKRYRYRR
UniProt Q8WWV3: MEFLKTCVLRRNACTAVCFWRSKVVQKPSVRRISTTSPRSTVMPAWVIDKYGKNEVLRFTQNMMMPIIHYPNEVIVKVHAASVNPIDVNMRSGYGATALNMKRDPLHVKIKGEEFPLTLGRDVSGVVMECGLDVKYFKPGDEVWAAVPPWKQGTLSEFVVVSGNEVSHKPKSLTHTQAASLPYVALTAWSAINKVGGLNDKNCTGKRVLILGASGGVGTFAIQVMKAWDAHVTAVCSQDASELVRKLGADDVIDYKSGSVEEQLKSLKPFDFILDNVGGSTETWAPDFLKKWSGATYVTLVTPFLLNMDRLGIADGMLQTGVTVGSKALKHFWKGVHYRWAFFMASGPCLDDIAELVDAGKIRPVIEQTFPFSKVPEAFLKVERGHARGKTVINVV
UniProt Q92688: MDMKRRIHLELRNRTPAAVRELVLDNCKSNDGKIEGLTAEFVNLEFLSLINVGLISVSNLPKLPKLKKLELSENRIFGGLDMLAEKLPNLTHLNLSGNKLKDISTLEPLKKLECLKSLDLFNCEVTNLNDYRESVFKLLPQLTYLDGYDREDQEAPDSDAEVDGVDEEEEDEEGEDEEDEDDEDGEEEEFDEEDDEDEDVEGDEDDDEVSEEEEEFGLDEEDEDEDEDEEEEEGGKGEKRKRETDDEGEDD
UniProt Q92918, whole entry, looked up: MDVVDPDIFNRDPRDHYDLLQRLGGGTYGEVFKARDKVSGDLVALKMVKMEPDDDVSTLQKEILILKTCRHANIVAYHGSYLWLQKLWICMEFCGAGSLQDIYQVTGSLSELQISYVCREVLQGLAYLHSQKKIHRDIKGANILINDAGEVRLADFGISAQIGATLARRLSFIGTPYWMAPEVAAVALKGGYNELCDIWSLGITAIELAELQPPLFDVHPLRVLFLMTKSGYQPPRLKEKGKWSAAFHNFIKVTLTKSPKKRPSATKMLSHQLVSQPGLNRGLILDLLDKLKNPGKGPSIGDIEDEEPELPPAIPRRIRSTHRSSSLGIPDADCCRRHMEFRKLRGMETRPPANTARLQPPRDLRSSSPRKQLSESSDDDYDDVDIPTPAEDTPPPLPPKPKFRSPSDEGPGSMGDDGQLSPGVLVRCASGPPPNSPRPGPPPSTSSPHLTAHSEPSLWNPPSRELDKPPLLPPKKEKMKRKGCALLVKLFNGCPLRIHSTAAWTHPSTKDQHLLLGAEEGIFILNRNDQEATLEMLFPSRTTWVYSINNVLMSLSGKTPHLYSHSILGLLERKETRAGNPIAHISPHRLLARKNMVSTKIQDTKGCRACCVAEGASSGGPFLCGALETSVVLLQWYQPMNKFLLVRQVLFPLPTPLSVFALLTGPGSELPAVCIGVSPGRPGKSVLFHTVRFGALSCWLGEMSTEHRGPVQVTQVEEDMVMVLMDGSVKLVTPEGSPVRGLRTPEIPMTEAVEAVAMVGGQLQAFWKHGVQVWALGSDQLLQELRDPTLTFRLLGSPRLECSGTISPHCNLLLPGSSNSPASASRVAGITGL
UniProt Q8WVJ2: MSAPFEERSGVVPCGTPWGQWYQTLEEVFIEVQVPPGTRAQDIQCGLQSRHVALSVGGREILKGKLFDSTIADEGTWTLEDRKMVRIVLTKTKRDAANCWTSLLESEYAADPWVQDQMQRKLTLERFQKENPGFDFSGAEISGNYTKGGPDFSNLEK
UniProt Q92845: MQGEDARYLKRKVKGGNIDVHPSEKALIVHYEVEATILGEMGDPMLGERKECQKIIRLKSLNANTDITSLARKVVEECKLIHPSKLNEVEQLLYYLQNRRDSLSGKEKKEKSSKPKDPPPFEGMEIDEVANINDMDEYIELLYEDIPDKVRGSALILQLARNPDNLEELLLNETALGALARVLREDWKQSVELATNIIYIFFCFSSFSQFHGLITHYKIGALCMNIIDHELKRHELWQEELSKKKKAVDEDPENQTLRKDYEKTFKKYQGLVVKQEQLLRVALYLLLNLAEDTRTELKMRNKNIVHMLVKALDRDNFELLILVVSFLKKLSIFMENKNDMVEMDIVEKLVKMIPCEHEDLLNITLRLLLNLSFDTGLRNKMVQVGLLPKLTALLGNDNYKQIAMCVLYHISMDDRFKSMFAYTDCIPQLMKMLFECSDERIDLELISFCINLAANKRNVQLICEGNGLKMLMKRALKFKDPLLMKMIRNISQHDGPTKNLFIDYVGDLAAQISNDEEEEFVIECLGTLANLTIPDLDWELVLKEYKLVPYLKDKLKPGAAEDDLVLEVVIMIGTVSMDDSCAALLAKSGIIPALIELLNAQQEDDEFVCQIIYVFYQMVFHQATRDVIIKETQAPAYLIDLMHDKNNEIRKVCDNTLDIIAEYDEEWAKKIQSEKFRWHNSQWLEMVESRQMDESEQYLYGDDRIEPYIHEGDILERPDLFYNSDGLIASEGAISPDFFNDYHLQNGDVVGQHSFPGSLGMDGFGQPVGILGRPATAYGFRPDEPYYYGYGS
UniProt Q8TAD8: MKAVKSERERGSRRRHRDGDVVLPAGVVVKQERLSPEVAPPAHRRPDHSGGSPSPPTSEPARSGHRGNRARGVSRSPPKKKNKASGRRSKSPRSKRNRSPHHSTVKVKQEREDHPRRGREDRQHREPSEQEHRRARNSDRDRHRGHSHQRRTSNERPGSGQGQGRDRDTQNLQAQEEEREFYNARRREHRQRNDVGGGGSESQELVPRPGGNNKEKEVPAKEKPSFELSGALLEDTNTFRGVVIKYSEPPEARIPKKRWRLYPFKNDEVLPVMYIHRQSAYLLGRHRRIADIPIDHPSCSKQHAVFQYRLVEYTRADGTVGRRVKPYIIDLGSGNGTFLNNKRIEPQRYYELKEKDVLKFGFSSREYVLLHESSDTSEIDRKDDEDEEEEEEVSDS
UniProt Q8NFF5: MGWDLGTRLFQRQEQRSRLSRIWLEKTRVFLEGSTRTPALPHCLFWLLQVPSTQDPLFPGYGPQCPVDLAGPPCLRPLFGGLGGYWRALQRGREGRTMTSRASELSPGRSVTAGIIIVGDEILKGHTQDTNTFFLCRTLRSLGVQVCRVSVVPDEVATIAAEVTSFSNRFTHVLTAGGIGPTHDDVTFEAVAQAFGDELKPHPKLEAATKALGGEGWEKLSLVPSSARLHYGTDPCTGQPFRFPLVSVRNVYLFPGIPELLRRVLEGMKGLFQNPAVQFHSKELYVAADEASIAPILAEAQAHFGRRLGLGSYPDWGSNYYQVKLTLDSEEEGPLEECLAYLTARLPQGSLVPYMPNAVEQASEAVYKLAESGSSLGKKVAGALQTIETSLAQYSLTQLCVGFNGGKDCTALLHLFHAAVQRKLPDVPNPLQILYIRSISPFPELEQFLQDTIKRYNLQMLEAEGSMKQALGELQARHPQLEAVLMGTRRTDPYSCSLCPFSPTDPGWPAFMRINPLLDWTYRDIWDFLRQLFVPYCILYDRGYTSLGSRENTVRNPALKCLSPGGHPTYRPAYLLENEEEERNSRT
UniProt Q8TCY9: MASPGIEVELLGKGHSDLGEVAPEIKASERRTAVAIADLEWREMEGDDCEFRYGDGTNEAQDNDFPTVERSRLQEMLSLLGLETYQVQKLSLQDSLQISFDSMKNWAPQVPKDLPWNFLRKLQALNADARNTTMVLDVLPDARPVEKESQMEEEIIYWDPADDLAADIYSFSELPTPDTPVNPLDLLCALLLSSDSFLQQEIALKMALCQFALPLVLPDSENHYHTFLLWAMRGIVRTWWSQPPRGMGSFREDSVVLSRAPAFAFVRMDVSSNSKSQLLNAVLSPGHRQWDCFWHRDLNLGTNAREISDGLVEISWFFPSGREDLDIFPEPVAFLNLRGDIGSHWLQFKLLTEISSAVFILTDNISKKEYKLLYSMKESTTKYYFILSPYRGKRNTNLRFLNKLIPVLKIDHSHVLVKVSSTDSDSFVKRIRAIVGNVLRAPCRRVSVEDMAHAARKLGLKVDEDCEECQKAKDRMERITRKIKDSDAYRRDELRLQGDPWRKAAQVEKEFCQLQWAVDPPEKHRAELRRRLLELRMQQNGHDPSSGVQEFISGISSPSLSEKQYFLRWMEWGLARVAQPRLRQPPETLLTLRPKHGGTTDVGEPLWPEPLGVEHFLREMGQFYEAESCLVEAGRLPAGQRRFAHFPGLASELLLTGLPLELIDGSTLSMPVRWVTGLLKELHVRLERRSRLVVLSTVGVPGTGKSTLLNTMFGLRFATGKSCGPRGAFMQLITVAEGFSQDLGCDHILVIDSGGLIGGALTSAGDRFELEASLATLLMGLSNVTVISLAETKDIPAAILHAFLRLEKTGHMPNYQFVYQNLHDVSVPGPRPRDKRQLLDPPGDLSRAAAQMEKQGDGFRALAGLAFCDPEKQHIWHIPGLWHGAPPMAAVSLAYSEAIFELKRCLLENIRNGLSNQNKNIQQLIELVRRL
UniProt Q8TBC4: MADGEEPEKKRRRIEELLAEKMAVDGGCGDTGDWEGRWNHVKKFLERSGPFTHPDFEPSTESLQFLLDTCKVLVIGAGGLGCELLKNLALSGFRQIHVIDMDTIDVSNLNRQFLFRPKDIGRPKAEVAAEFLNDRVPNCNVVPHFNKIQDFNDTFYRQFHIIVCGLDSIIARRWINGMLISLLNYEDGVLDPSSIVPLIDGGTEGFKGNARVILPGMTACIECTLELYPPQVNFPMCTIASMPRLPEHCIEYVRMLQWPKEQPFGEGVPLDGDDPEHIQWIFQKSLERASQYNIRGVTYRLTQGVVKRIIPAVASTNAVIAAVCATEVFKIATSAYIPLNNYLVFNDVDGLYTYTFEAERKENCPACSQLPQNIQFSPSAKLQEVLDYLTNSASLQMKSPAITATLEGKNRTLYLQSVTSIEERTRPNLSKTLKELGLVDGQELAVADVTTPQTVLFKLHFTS

Compound: Nc1ncnc2c1ncn2[C@@H]1O[C@H](COP(=O)(O)OP(=O)(O)NP(=O)(O)O)[C@@H](O)[C@H]1O [adenylyl imidodiphosphate]
Assay: NP40-soluble protein abundance relative to vehicle (solubility fold change) (ratio); higher = more soluble protein in presence of AMP-PNP
Outline: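 Jurkat crude lysate prepared with a Dounce homogeniser was treated at eight concentrations spanning 0.1 to 10 mM, 10 min at room temperature then 3 min at 37 °C. Solubilisation with 0.8% NP40 and benzonase and ultracentrifugation preceded TMT labelling of the supernatant for LC-MS/MS. Fold change against the detergent-processed vehicle was determined per replicate from vsn-normalised intensities, across three independent experiments.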

Target	NP40-soluble protein abundance (concentration: 1mM)	NP40-soluble protein abundance (concentration: 2mM)	NP40-soluble protein abundance (concentration: 4mM)	NP40-soluble protein abundance (concentration: 6mM)	NP40-soluble protein abundance (concentration: 8mM)	NP40-soluble protein abundance (concentration: 10mM)
UBXN4 (UniProt Q92575)	1 ± 0.014	1.03 ± 0.059	0.997 ± 0.037	0.991 ± 0.027	0.963 ± 0.025	0.992 ± 0.049
UniProt Q8TCC3 and related entries	1.02 ± 0.074	1.05 ± 0.066	1.01 ± 0.1	1.02 ± 0.11	1.01 ± 0.11	1.02 ± 0.17
UniProt Q8WU79 and related entries	1.03 ± 0.02	1.04 ± 0.029	0.984 ± 0.029	1 ± 0.027	0.964 ± 0.029	0.969 ± 0.055
UniProt Q8WUQ7 and related entries	1.05 ± 0.027	1.05 ± 0.027	1.09 ± 0.03	1.06 ± 0.023	1.06 ± 0.031	1.11 ± 0.063
RTN4IP1 (UniProt Q8WWV3)	1 ± 0.028	0.947 ± 0.058	0.971 ± 0.027	0.946 ± 0.028	0.947 ± 0.035	0.922 ± 0.012
UniProt Q8TAA3 and related entries	0.935 ± 0.044	0.934 ± 0.021	0.982 ± 0.056	1.04 ± 0.049	1.04 ± 0.06	1.05 ± 0.1
SCFD1 (UniProt Q8WVM8)	0.988 ± 0.021	0.99 ± 0.023	0.984 ± 0.013	0.967 ± 0.038	0.9484 ± 0.0082	0.96 ± 0.039
UniProt Q8WXA9-2	0.989 ± 0.024	1.02 ± 0.04	1.02 ± 0.043	1.07 ± 0.022	1.09 ± 0.039	1.18 ± 0.055
UniProt Q8WUB8 and related entries	1.01 ± 0.045	1.04 ± 0.034	1.07 ± 0.023	1.11 ± 0.045	1.08 ± 0.051	1.15 ± 0.061
UniProt Q92688 and related entries	1.04 ± 0.075	1.05 ± 0.053	1.02 ± 0.07	1.02 ± 0.016	1.01 ± 0.037	1 ± 0.044
UniProt Q92918-2|K7ER95	1.03 ± 0.017	0.979 ± 0.025	1.02 ± 0.034	0.984 ± 0.028	0.9752 ± 0.0054	0.984 ± 0.025
UniProt Q92540 and related entries	0.986 ± 0.028	1.03 ± 0.031	1.01 ± 0.032	0.973 ± 0.035	0.96 ± 0.025	0.978 ± 0.022
TRUB1 (UniProt Q8WWH5)	1.05 ± 0.023	1.07 ± 0.047	1.04 ± 0.025	1.05 ± 0.037	1.05 ± 0.011	1.08 ± 0.048
FIG4 (UniProt Q92562)	1 ± 0.022	1.04 ± 0.024	1.06 ± 0.04	1.02 ± 0.024	0.9942 ± 0.0076	0.9926 ± 0.0034
NUDCD2 (UniProt Q8WVJ2)	1.013 ± 0.0085	1.03 ± 0.082	0.989 ± 0.041	1 ± 0.029	0.956 ± 0.026	0.95 ± 0.037
GSTCD (UniProt Q8NEC7)	0.9928 ± 0.0054	0.988 ± 0.057	0.999 ± 0.029	0.992 ± 0.038	1.01 ± 0.019	1 ± 0.025
UniProt Q92796-3	1.04 ± 0.027	1.048 ± 0.0018	1.05 ± 0.013	1.03 ± 0.044	1.05 ± 0.028	1.04 ± 0.018
NFATC2IP (UniProt Q8NCF5)	1.04 ± 0.011	1.08 ± 0.067	1.03 ± 0.062	1.011 ± 0.0037	1.01 ± 0.021	1.02 ± 0.044
UniProt Q92845 and related entries	0.979 ± 0.013	0.992 ± 0.027	0.992 ± 0.015	0.975 ± 0.032	0.968 ± 0.025	0.971 ± 0.03
ZCRB1 (UniProt Q8TBF4)	1.0199 ± 0.00057	1.05 ± 0.049	1.02 ± 0.018	1.04 ± 0.033	0.99738 ± 0.00012	1.068 ± 0.0043
GIMAP7 (UniProt Q8NHV1)	0.978 ± 0.028	0.932 ± 0.024	0.946 ± 0.042	0.8985 ± 0.007	0.88 ± 0.012	0.862 ± 0.046
SNIP1 (UniProt Q8TAD8)	1.016 ± 0.0054	0.999 ± 0.017	0.983 ± 0.048	0.9983 ± 0.0077	1.01 ± 0.032	1.01 ± 0.014
UniProt Q8NFF5 and related entries	1.01 ± 0.011	0.997 ± 0.031	0.982 ± 0.013	0.9712 ± 0.0049	0.971 ± 0.017	0.959 ± 0.022
UniProt Q8TCY9	0.99342 ± 0.00023	1.01 ± 0.028	0.986 ± 0.04	0.974 ± 0.043	0.982 ± 0.029	0.9689 ± 0.0011
PIEZO1 (UniProt Q92508)	0.992 ± 0.012	0.9827 ± 0.007	1 ± 0.018	0.998 ± 0.018	1.009 ± 0.009	1 ± 0.014
EDEM1 (UniProt Q92611)	1.001 ± 0.0074	1.02 ± 0.03	0.984 ± 0.052	0.99 ± 0.043	0.982 ± 0.023	0.989 ± 0.067
UBA3 (UniProt Q8TBC4)	0.984 ± 0.025	0.949 ± 0.057	1.01 ± 0.033	0.986 ± 0.027	1 ± 0.021	0.979 ± 0.028
UniProt Q92878 and related entries	1.05 ± 0.035	1.07 ± 0.012	1.06 ± 0.037	1.03 ± 0.073	1.02 ± 0.061	1.05 ± 0.062
UniProt Q92538 and related entries	0.974 ± 0.015	0.941 ± 0.029	0.948 ± 0.018	0.91 ± 0.032	0.899 ± 0.034	0.903 ± 0.041
SNRNP27 (UniProt Q8WVK2)	1.01 ± 0.011	1.08 ± 0.12	1 ± 0.03	1.1 ± 0.1	1.12 ± 0.091	1.23 ± 0.036

Two records drawn at random from those above, as already listed:
Target	NP40-soluble protein abundance (concentration: 1mM)	NP40-soluble protein abundance (concentration: 2mM)	NP40-soluble protein abundance (concentration: 4mM)	NP40-soluble protein abundance (concentration: 6mM)	NP40-soluble protein abundance (concentration: 8mM)	NP40-soluble protein abundance (concentration: 10mM)
UniProt Q92540 and related entries	0.986 ± 0.028	1.03 ± 0.031	1.01 ± 0.032	0.973 ± 0.035	0.96 ± 0.025	0.978 ± 0.022
RTN4IP1 (UniProt Q8WWV3)	1 ± 0.028	0.947 ± 0.058	0.971 ± 0.027	0.946 ± 0.028	0.947 ± 0.035	0.922 ± 0.012
